The results in this text go back to article PMC5057127.

The target in assay [1] is Cicer arietinum galactinol synthase 1 (CaGolS1) (Cicer arietinum (chickpea)). The assay is described as follows: SEC; gel filtration of the recombinant protein on AKTA Prime Plus, column calibrated with molecular weight standards; 20 mM Tris-Cl pH 7.6, 150 mM NaCl, 2 mM beta-ME, 10% glycerol; 0.4 ml/min; both purified.
In assay [2] the target is Cicer arietinum galactinol synthase 2 (CaGolS2) (Cicer arietinum (chickpea)). Described as above.

Results are given in words; binding and its absence hold for the method and conditions named.

Consider “Cicer arietinum galactinol synthase 1 (CaGolS1) (from UniProt A0ACM7D3V3 1-339) (enzyme)”, for which, in assay [1], the binding entry was “no binding”.
As to “Cicer arietinum galactinol synthase 2 (CaGolS2) (from UniProt A0A1S2XWH8 1-325) (enzyme)”, the binding result in assay [2] was “no binding”.
